## Primary screen of a compound library

From ChEMBL document CHEMBL3988442, “University of Dundee, Small-Polar-MMV Screening Library” (2021).

Mtb glucose medium: 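Whole-cell growth test on Mycobacterium tuberculosis, read after 3 days in glucose-containing 7H9 medium; the read-out is not stated. Compounds at 500 µM. Higher reads as more growth inhibition (inferred: compounds with an IC50 in retests scored well above the rest). About 18,000 compounds were tested under these conditions; 7.9% (about 1,400) showed 50% or more at least once.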
Mtb cholesterol medium: 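Growth of Mycobacterium tuberculosis over 4 days (cholesterol / DPPC medium with tyloxapol); the read-out is not stated. Tested at 500 µM. Direction is inferred from retests: higher values go with more growth inhibition. Size under these conditions: about 18,000 compounds, about 900 of them at 50% or above in at least one test.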

Values are the deposited “Percent Effect”, in %. How 0% and 100% were set is not recorded. Most values in the screen are low, and negative values occur. This is an unselected part of the compounds tested.

compound	Mtb glucose medium	Mtb cholesterol medium
CNC(=O)CCSCc1ccccc1	33.15%	21%
CCCn1nc2n(c1=O)C(=O)N(c1ccc(Cl)cc1)C2	0.5004%	-2.721%
CCN1CCOC(C(=O)NCCOC)C1 (stereo not given)	-6.583%	-7.05%
CCS(=O)(=O)N1CCC(C(C)NC)CC1 (stereo not given)	-2.329%	-9.327%
OCC(O)CSc1ncn(-c2ccccc2)n1 (stereo not given)	9.046%	-4.989%
CCNC(=O)CN(C)C(=O)c1cc(Cl)ccc1O	11.6%	4.296%
NC(=O)c1ccc(OCC(F)(F)C(F)F)nc1	32.24%	26.23%
CN(Cc1ccc(F)c(F)c1)C(=O)C1CCOCC1	36.14%	40.24%
CC[C@H](C)[C@H](N)C(=O)NC	-1.814%	-16.71%
CC(=O)c1cccc(C#N)c1	8.023%	7.355%
CN(CCNC(=O)c1c(O)cc(F)cc1F)C1CC1	-10.64%	7.282%
CCN1CCCC1CNC(=O)c1ccccc1F (stereo not given)	2.57%	10.12%
CN(Cc1cncs1)Cc1nccn1C	7.298%	1.275%
OCCNCC(O)c1ccc(Br)cc1 (stereo not given)	17.79%	5.038%
O=C(CC1CCCCC1)N1CCNCC1	14.29%	6.388%
CN(C)CCNC(=O)CCS(=O)(=O)c1ccc(Cl)cc1	-9.115%	0.4487%
OC1(C(F)F)CNC1	0.5943%	-6.029%
NCc1cccc(OCC(F)F)c1	16.52%	21.95%
CN(C)C1CCN(C(=O)c2ccccn2)CC1	-0.4467%	-10.34%
O=C(NCCn1ccnc1)N1CCCC1	6.702%	11.47%
Cc1cccc(NC(=O)N(C)C(CO)C(C)(C)C)n1 (stereo not given)	5.229%	0.7018%
O[C@H]1C[C@@H](c2cc(NCCc3ncc[nH]3)ncn2)C1	6.308%	2.695%
COc1ccc(-c2noc(C3(O)CCCC3)n2)cn1	64.67%	73.6%
O=C(NCCc1nnc[nH]1)C1COc2ccc(Br)cc21 (stereo not given)	-0.2155%	2.434%
COc1ccccc1S(=O)(=O)N1C[C@H](C(C)C)[C@@H](N)C1	10.49%	3.195%
O=C(Cn1c(=O)oc2cc(Cl)ccc21)N1CCOCC1	-9.005%	-12.61%
CCCn1nc(C)cc1NC(=O)N1CCCC(C#N)C1 (stereo not given)	10.69%	11.83%
CNCCCNS(=O)(=O)c1ccc(Br)c(C(C)=O)c1	-2.745%	-15.12%
Cc1nccn1-c1ccc(NCc2ncc[nH]2)cc1F	12.84%	-9.689%
CC(=O)N1CCc2c(F)ccc(F)c2C1	-0.3803%	0.6827%
Cc1cnccc1NC(=O)NCCCn1ccnc1	2.695%	7.654%
CC(C)NC(=O)C(C)n1cncn1 (stereo not given)	6.96%	11.89%
CC1CCCN1CC(=O)Nc1ncccc1O (stereo not given)	2.205%	-2.58%
O=C(Nc1ccccc1F)c1ncccn1	-8.539%	-12.9%
COCCN(CC(N)=O)CC(=O)N(C)Cc1ccco1	-3.625%	-7.397%
CC(C)OCCCNCCC#N	-42.07%	-45.29%
CS(=O)(=O)c1ccc(NC(=O)c2ccccc2Br)cn1	41.6%	19.92%
CCOCCC(=O)NC(CC)c1cccc(C)n1 (stereo not given)	-13.25%	0.6192%
CNCc1nnc(C)s1	8.207%	7.73%
COc1cccc(C(N)c2cccnc2)c1 (stereo not given)	10.18%	8.738%
COc1cn(C)c(C(=O)Nc2cccnc2)cc1=O	7.806%	8.363%
C[C@@H]1CN(C(=O)c2cc(F)ccc2F)C[C@H]1CO	9.75%	3.091%
CC(SC1=NCCN1)C(=O)Nc1ccc(F)cc1 (stereo not given)	33.69%	30.7%
CC(C)(C)OC(=O)Nc1cnsn1	1.747%	2.036%
CC(C)Oc1cc(CN)ccn1	21.87%	20.67%
O=C(CCc1ccco1)Nc1cnccc1O	3.977%	-13.2%
CCN(C(=O)CC1C=CS(=O)(=O)C1)c1ccccc1C (stereo not given)	24.14%	-1.21%
CN(CCC(=O)N(C)C)CC(=O)Nc1ccc(Br)cn1	10.89%	-12.68%
COC(=O)c1ccc(CSc2nnc(N)[nH]2)cc1	42.96%	38.03%
CCc1nc(CN2CCC(O)(C(F)(F)F)CC2)no1	40.98%	40.14%
C[C@H](N)c1nc2ccccc2[nH]1	-9.432%	-14.1%
CN(C)CCN(C)S(=O)(=O)CCCC#N	6.698%	5.948%
NC(=O)NC1CCCNC1 (stereo not given)	-7.881%	-2.445%
CC1CNCCN1c1nc2ccccc2o1 (stereo not given)	47.34%	30.39%
Cc1nc(-c2ccc(CN)o2)cs1	11.47%	3.338%
NCCCn1ccnn1	2.854%	-2.228%
CC(C)(O)CNC(=O)CCCc1ccccc1	-6.57%	-15.38%

7 of the entries, repeated:

compound	Mtb glucose medium	Mtb cholesterol medium
CC[C@H](C)[C@H](N)C(=O)NC	-1.814%	-16.71%
NC(=O)c1ccc(OCC(F)(F)C(F)F)nc1	32.24%	26.23%
CCCn1nc(C)cc1NC(=O)N1CCCC(C#N)C1 (stereo not given)	10.69%	11.83%
OC1(C(F)F)CNC1	0.5943%	-6.029%
CN(CCC(=O)N(C)C)CC(=O)Nc1ccc(Br)cn1	10.89%	-12.68%
Cc1nc(-c2ccc(CN)o2)cs1	11.47%	3.338%
CNCCCNS(=O)(=O)c1ccc(Br)c(C(C)=O)c1	-2.745%	-15.12%